Measurements published in paper PMC6768852.
The exact form of at least one protein or probe is not confirmed. A negative result means that nothing was seen under these conditions. At least one verdict was read from the data and is not stated in words by the source.

Amino acid sequences for entries named in this document (tags omitted). Residues count along the entry.
UniProt Q9Y6M1, 425-581: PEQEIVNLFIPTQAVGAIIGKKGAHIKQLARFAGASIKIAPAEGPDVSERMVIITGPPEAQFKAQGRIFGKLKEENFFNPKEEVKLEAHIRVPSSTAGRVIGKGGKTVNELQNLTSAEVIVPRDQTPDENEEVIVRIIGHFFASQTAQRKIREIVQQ

What was measured:
IMP2 KH3 VL MUT (KH34) = test: EMSA; settings: EMSA: 100 pM RNA, 10 mM Tris, 100 mM NaCl, 0.1 mM EDTA, 0.01 mg/mL tRNA, 50 ug/mL heparin, 0.01% IGEPAL CA630, room temperature, 3 h, pH not stated, recombinant protein
IMP2 KH34 = IMP2 KH34 (UniProt Q9Y6M1); test: EMSA; settings: EMSA: 100 pM RNA, 10 mM Tris, 100 mM NaCl, 0.1 mM EDTA, 0.01 mg/mL tRNA, 50 ug/mL heparin, 0.01% IGEPAL CA630, room temperature, 3 h, pH not stated, recombinant protein, protein details: MBP
[1] = letters put together from the description

| Sequence | binding result (IMP2 KH3 VL MUT (KH34)) | binding result (IMP2 KH34) | binding result (IMP2 KH3 VL MUT (KH34); permissive except for G) | binding result (IMP2 KH34; [1]) |
| --- | --- | --- | --- | --- |
| ACCGUACUGUUACCAACACCCACACCCC [C28 G5U] | no binding | – | – | – |
| ACGGGACUGUUACCAACACCCACACCCC [C28 C3G] | – | no binding | no binding | – |
| ACCGGCCUGUUACCAACACCCACACCCC [C28 A6C] | binds | no binding | – | – |
| ACCGAACUGUUACCAACACCCACACCCC [C28 G5A] | no binding | – | – | – |
| ACCGGUCUGUUACCAACACCCACACCCC [C28 A6U] | binds | no binding | – | – |
| ACAGGACUGUUACCAACACCCACACCCC [C28 C3A] | binds | no binding | – | – |
| ACUGGACUGUUACCAACACCCACACCCC [C28 C3U] | binds | no binding | – | – |
| ACCAGACUGUUACCAACACCCACACCCC [C28 G4A] | no binding | – | – | – |
| ACCUGACUGUUACCAACACCCACACCCC [C28 G4U] | no binding | – | – | – |
| GGGCGGAGCGACGCAGUUUAGCGGCCUCAGCGAACCCUUUGGAACACUUCUC [SELEX RNA #1 CA mutant] | – | – | – | no binding |
| ACCGCACUGUUACCAACACCCACACCCC [C28 G5C] | no binding | – | – | – |
| GGGCAGAGCGACGCAGUUUAGCGGCCUCAGCGAACCCUUUAAAACACUUCUC [SELEX RNA #1 GG mutant] | – | – | – | no binding |
| ACCGGGCUGUUACCAACACCCACACCCC [C28 A6G] | – | no binding | no binding | – |
| ACCCGACUGUUACCAACACCCACACCCC [C28 G4C] | no binding | – | – | – |
